Results taken from paper PMC12147125.
For at least one entry, the source does not settle the construct or the ends of the probe. At least one verdict rests on a figure or table, not on a statement of the authors.

By UniProt entry, the sequences of proteins in these tests, tags left out. Where a name states a change or a piece, a line headed by the entry shows the natural chain unless it says otherwise.
UniProt P04390: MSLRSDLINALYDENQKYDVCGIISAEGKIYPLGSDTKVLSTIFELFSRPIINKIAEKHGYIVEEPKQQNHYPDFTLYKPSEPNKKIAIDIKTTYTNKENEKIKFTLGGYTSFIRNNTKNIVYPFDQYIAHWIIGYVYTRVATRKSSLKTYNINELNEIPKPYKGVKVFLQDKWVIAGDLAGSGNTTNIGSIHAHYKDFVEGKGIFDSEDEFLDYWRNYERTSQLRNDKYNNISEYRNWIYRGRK

Molecular target: EcoRV restriction endonuclease (UniProt P04390)
Test: equilibrium binding (KA; assay not stated in material)
Details: DEER: 175 uM DNA, 400 uM Cu(II), 200 uM EcoRV dimer, 50 mM NEM pH 7.4, 40% d8-glycerol in D2O (protein stock with 100 mM NaCl), flash frozen, recombinant protein

Sequence: GCAAAGATATCTTTCG (double strand) [EcoRV site 16-mer GCAAAgatatcTTTCG]
- binding result (Lu(III), KA enhanced relative to metal-free KA,0, values not in material): binds
- binding result (no metal (reference KA,0, value truncated in material)): binds
